Measured values published in patent publication US20060034833A1 (published 2006).
Residue numbers refer to the chain shown, from its start. Results are given in words; binding and its absence hold for the method and conditions named. Some entries that bind do so weakly or less than the wild type.

T1: human IFN-gamma (human, UniProt P01579 24-166)
T1 sequence (looked up): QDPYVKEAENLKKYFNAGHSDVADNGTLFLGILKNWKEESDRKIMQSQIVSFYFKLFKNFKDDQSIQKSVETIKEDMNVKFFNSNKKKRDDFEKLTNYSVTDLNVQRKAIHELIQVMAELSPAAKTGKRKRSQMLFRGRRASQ

B1: MP3C1SR (VHH)
VHH: QVQLQDSGGGLVQAGGSLRLSCAAAGISGSVFSRTPMGWYRQAPGKQRELVAGILSSGATVYAESVKGRFTISRDNAKNTVYLQMNSLSPEDTAEYYCNTYPTWVLSWGQGTQVTVSS
B2: MP3D2BR (VHH)
VHH: QVQLQESGGGLVQPGESLRLSCAASRGIFRFNAGGWYRQAPGKQRELVAFIGVDNTTRYIDSVKGRFTISRDNAKTTVYLQMNSLQPEDTAVYYCNKVPYIDWGQGTQVTVSS
B3: MP2F6SR (VHH)
VHH: QVKLEESGGGLVQAGGSLRLSCAASGRTFNNYNMGWFRQAPGKEREFVAAISWNGGSTYYDDSVKGRFTISRDNANNLVYLQMNSLNFEDTAVYYCACAANPYGIPQYRENRYDFWGQGTQVTVSS
B4: MP3C7SRA (VHH)
VHH: QVQLQESGGGLVQAGDSLRLSCAASGRSFSSYGMGWFRQAPGKEHEFVAGIWRSGVSLYYADSVKGRFTISRDDAKMTVSLQMNSLKPEDTAVYYCAAEATFPTWNRGRFADYDYSGQGTQVTVSS
B5: MP2F1BR (VHH)
VHH: AVQLVESGGGLVQTGDSLRLSCVASGGTFSRYAMGWFRQAPGKEREFVARIGYSGRSISYATSVEGRFAISRDNAKNTVYLQMNSLKPEDTAVYYCASLVSGTLYQADYWGQGTQVTVSS
B6: MP3B1SRA (VHH)
VHH: QVQLQESGGGLVQPGGSLRLSCAASGFTSSNYAMSWVRQAPGKGLEWVSSINSRTGSITYADSVKGRFTITLDNAKNTLYLQMNSLKPEDTAVYYCASRVDDRVSRGQGTQVTVSS
B7: MP4C10SR (VHH)
VHH: QVQLQESGGGLVQPGGSLRLSCAASGFTVSNYAMSWVRQPPGKGIEWVSSINNRNDHITYADSVKGRFTIARDNANNILYLQMNSLKPEDTAVYYCASRVDDRVSRGQGTQVTVSS
B8: MP3A7SRA (VHH)
VHH: QVQLQDSGGGLVQAGGSLRLSCAASGRTFSSFRMGWFRRAPGEEREFVAFVRSNGTSTYYADSVEGRFTITRDNAKNTVYLRMDSLKPEDTAVYYCAAATRDYGGSFDYWGQGTQVIVSS
B9: MP3F1SRA (VHH)
VHH: QVQLQESGGGLVQAGGSLTLSCVASGRTISDYAVGWFRQAPGKEREFVASISWGGGFTAFADSMKGRFTISRDNAKNTVYLQTHTLEPDDTSVYYCASSRRYCTGYRCYATASEFDSWGQGTQVTVSS
B10: MP3D2SRA (VHH)
VHH: QVQLQDSGGGTVQAGGSLRLSCAASGRTFSDYAVGWFRQAPGKEREFVARILWTGASRSYANSVDGRFTVSTDNAKNTVYLQMNSLKPEDTAIYYCAALPSNIITTDYLRVYYWGQGTQVTVSS
B11: MP3C5SR (VHH)
VHH: B1 VHH with D6E, S56T, V61S
B12: MP3G8SR (VHH)
VHH: B1 VHH with D6E, V61A
B13: MP4E4BR (VHH)
VHH: QVQLQESGGGLVQAGGSLRLSCAASGRTFSIYNMGWFRQAPGKEREFVAAISWNGGSIYYTSSVEGRFTISRDNAINTVYLQMNSLKPEDTGVYYCASKGRPYGVPSPRQGEYDYWGQGTQVTVSS
B14: MP3D1BR (VHH)
VHH: B3 VHH with K3Q, E5Q, N30D, A75F, N76Q, N77K, N87K, F88L
B15: MP2C1BR (VHH)
VHH: QVKLEESGGRLVQAGGSLRLSCIASGRTISDYAAGWFRQAPGKEREFLASVSWGFGSTYYADSVKGRFTISRDTAKDTVYLQMNTLEPDDTSVYYCASSPRYCAGYRCYATASEFDSWGQGTQVTVSS
B16: MP4A12SR (VHH)
VHH: B15 VHH with K3Q, E5Q, S52T, T74K, V93A, A110V, Q120P
B17: MP3F4SRA (VHH)
VHH: B4 VHH with E6D, A61T, N106S, S116R
B18: MP3D3BR (VHH)
VHH: B4 VHH with A23T, E44D, S85G, R109T, S116R
B19: MP3E5BR (VHH)
VHH: B4 VHH with S85G, R109S, S116R
B20: MP2C5BR (VHH)
VHH: B5 VHH with A1Q, A40P, E46D, R56Q, Q106K, A107P, D108N
B21: MP2F10SR (VHH)
VHH: B8 VHH with Q5V, D6E, F29I, I117T

Target: T1, human IFN-gamma
Assay: ELISA on human IFN-γ, Tx-114 treated and untreated purified VHH

Row | Binder | binding
1 | B1 | binds
2 | B2 | binds
3 | B3 | binds
4 | B4 | binds
5 | B5 | binds
6 | B6 | binds
7 | B7 | binds
8 | B8 | binds
9 | B9 | binds

Target: T1, human IFN-gamma
Assay: ELISA screening of selected clones on human IFN-γ (Examples 7 and 8)

Row | Binder | binding
10 | B10 | binds
11 | B11 | binds
12 | B1 | binds
13 | B12 | binds
14 | B2 | binds
15 | B13 | binds
16 | B3 | binds
17 | B14 | binds
18 | B15 | binds
19 | B16 | binds
20 | B17 | binds
21 | B18 | binds
22 | B19 | binds
23 | B4 | binds
24 | B5 | binds
25 | B20 | binds
26 | B6 | binds
27 | B7 | binds
28 | B21 | binds
29 | B8 | binds
30 | B9 | binds
